# About 6,200 (1.8%) of roughly 340,000 compounds were called active. The shares of active, inactive and inconclusive entries below differ from those in the screen. The call rests on the fitted dose curve; in most records, active means well fitted activation curve with a large enough effect; inconclusive means small, poorly fitted or top-dose-only effect; inactive means no such curve, though single readings can be large or run the other way. Where the call is inconclusive, the potency comes from a doubtful curve fit.
# Assay: A quantitative high throughput screen for small molecules that induce DNA re-replication in SW480 colon adenocarcinoma cells. Further: nearly all actives have a fitted effect of over 55% in size.
# Settings: Hoechst DNA content imaging, 48 h; series mostly up to 46.1 µM
# In short: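 SW480 cells exposed to compounds for 48 hr at 37 C, 5% CO2, then Hoechst-stained 40 min. Nuclear DNA content imaged by fluorescence scanning (405 nm excitation, 500-530 nm emission); re-replication scored as increased high-intensity nuclei.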
# Potency means the concentration at half of the fitted maximal effect.
row,SMILES,Potency
1,CN(c1ccccc1)S(=O)(=O)c1ccc(C(=O)Nc2ccncc2)cc1,inactive
2,CN(C)c1ccc(C(=O)N2CCCC(CCC(=O)N3CCN(c4ccccn4)CC3)C2)cc1 (stereo unspecified),inactive
3,CC(C)Oc1ccc(CCC(=O)NNC(=O)c2ccccc2C(=O)O)cc1,inactive
4,CCCCCCCNC(=O)C1(CC2CC(c3cccc(Br)c3)=NO2)CCN(C(=O)OC(C)(C)C)CC1 (stereo unspecified),inactive
5,CC(=O)Nc1cccc(NC(=O)c2cc(-c3cccnc3)nc3ccc(Br)cc23)c1,"inconclusive: 20.6 µM [activator, single point]"
6,CCn1c(SCC(=O)NCc2ccco2)nnc1-c1cccs1,inactive
7,Cc1cc(=O)n2[nH]c(N)c(N=Nc3ccccc3)c2n1,"inconclusive: 9.2 µM [activator, partial curve, poor fit]"
8,C/C(=N\Nc1nc(N2CCCCC2)nc(N2CCOCC2)n1)c1ccccc1O,active: 11.6 µM
9,NC1=NC(=O)/C(=C\c2ccc(-c3ccc(Cl)cc3)o2)S1,"inconclusive: 11.6 µM [activator, partial curve, poor fit]"
10,COc1ccc(-c2cccc3c2C2CC3CCN2C(=O)OCc2ccccc2)cc1 (stereo unspecified),inactive
11,O=C1CC2(CCN(C(=O)c3ccc([N+](=O)[O-])cc3)CC2)Oc2ccccc21,inactive
12,Nc1nc2c(Cl)ccc(Cl)c2s1,"inconclusive: 29.1 µM [activator, single point]"
13,COc1cc(OC)cc(C(=O)NNC(=O)CCc2nc3ccccc3c(=O)[nH]2)c1,"inconclusive: 11.6 µM [activator, single point]"
14,Cc1cccnc1CN1CCN(C(=O)c2cc(COc3ccc4ncccc4c3)on2)CC1,inactive
15,COc1ccccc1CNS(=O)(=O)c1ccc(S(=O)(=O)NC2CC2)cc1,"inconclusive: 29.1 µM [activator, partial curve, poor fit]"
16,COc1ccccc1CCCNC(=O)C1CCC(=O)N(Cc2ccccc2F)C1 (stereo unspecified),inactive
17,CCCCCCCCCCCC[n+]1ccc2ccccc2c1,"inconclusive: 11.9 µM [activator, single point]"
18,Cc1ccc(S(=O)(=O)/N=C2/NC(=O)/C(=C\c3ccccc3)S2)cc1,inactive
19,Cc1ccc(Cn2nnc3c(=O)[nH]c(C4CCN(S(=O)(=O)/C=C/c5ccccc5)CC4)nc32)cc1,"inconclusive: 18.4 µM [activator, single point]"
20,Cc1ccc(S(=O)(=O)N2CCCC2CNC(=O)c2ccc(F)c(F)c2)cc1 (stereo unspecified),"inconclusive: 13 µM [activator, partial curve]"
21,COC(=O)Cc1ccc(N(Cc2ccccc2F)S(=O)(=O)c2ccc(Br)cc2)cc1,"inconclusive: 29.1 µM [activator, single point]"
22,CC(C)(C)c1ccc(-c2n[nH]c(=S)n2Cc2ccccc2)cc1,inactive
23,CC(=O)c1cccc(N2C(=NC(=O)C3CCCCC3)SC3CS(=O)(=O)CC32)c1 (stereo unspecified),"inconclusive: 25.9 µM [activator, single point]"

# Among those listed so far, four have an NH in an aromatic ring:
row,SMILES,Potency
7,Cc1cc(=O)n2[nH]c(N)c(N=Nc3ccccc3)c2n1,"inconclusive: 9.2 µM [activator, partial curve, poor fit]"
13,COc1cc(OC)cc(C(=O)NNC(=O)CCc2nc3ccccc3c(=O)[nH]2)c1,"inconclusive: 11.6 µM [activator, single point]"
19,Cc1ccc(Cn2nnc3c(=O)[nH]c(C4CCN(S(=O)(=O)/C=C/c5ccccc5)CC4)nc32)cc1,"inconclusive: 18.4 µM [activator, single point]"
22,CC(C)(C)c1ccc(-c2n[nH]c(=S)n2Cc2ccccc2)cc1,inactive

# (cont.)

row,SMILES,Potency
1,O=C(NC1CCNCC1)C1CC1,inactive
2,COc1ccc2cc3c(N)nn(C(=O)Cc4c[nH]c5ccccc45)c3nc2c1,"inconclusive: 29.1 µM [activator, single point]"
3,CC1=C(C(=O)Nc2ccc(CC(=O)NCc3ccc(OC(C)C)cc3)cc2)SCCO1,"inconclusive: 0.164 µM [activator, full curve, poor fit]"
4,Cc1cccc(-n2c(C)nc3cc(C(=O)NCc4ccc5c(c4)OCO5)ccc32)c1,"inconclusive: 0.517 µM [activator, full curve, poor fit]"
5,O=C(COC(=O)c1nc(Cl)ccc1Cl)c1ccc[nH]1,inactive
6,Cc1ccc(NC(=O)CCNS(=O)(=O)c2ccc3[nH]c(=O)oc3c2)cc1F,inactive
7,CC1CCCN(CC(O)COc2ccc(-c3ccccc3)cc2)C1 (stereo unspecified),"inconclusive: 4.11 µM [activator, full curve, poor fit]"
8,CCCCCC/C=N/Nc1nnc(Cc2ccc(OC)c(OC)c2)c(=O)[nH]1,"inconclusive: 18.4 µM [activator, partial curve, poor fit]"
9,CCCCN(CC(=O)Nc1cccc(S(=O)(=O)N2CCCC2)c1)Cc1nc2ccccc2c(=O)[nH]1,"inconclusive: 18.4 µM [activator, partial curve, poor fit]"
10,Cc1ccc(NC(=O)CN2C(=O)S/C(=C\c3ccc(-c4cccc(C(=O)O)c4C)o3)C2=O)cc1C,"inconclusive: 29.1 µM [activator, partial curve, poor fit]"
11,COc1ccc(CN2CCN(C(=O)Cn3nc(C(=O)O)c4ccccc4c3=O)CC2)cc1F,inactive
12,O=CNCc1nc2ccccc2n1CCc1ccccc1,active: 2.91 µM
13,O=C(NC(CO)Cc1ccc([N+](=O)[O-])cc1)C(Cl)Cl (stereo unspecified),inactive
14,COc1ccc2c(c1)c(=O)c(C(=O)c1ccccc1)cn2Cc1ccccc1,active: 16.4 µM
15,CCOc1ccc(NC(=O)C(CC(=O)O)Cc2ccc(Br)cc2)cc1 (stereo unspecified),"inconclusive: 1.16 µM [activator, full curve, poor fit]"
16,CCCCN(CCCC)C(=O)c1cc(Cl)ccc1[N+](=O)[O-],"inconclusive: 6.51 µM [activator, single point]"
17,COc1ccc(C(=O)/C=C/c2ccc(OC(=O)c3cc(OC)c(OC)c(OC)c3)cc2)cc1,"inconclusive: 25.9 µM [activator, single point]"
18,Cc1cc(C)cc(-c2nnc(SCC(=O)c3ccc4c(c3)OCCO4)o2)c1,"inconclusive: 29.1 µM [activator, single point]"
19,CS(=O)(=O)N(CC(=O)N1CCN(c2cccc(Cl)c2)CC1)C1CCCCC1,inactive
20,O=C(NNc1ncnc2c1cnn2-c1ccc(F)cc1)c1cccs1,inactive
21,COc1cccc(NC(=O)CN(C)C(=O)c2cc3c(s2)CCCCC3)c1,inactive
22,COc1ccccc1C(=O)NNC(=O)C1CC=CCC1 (stereo unspecified),"inconclusive: 29.1 µM [activator, single point]"
23,CC1CCN(CC(=O)Nc2cccc(C(=O)Nc3cccc(C(F)(F)F)c3)c2)CC1,"inconclusive: 29.1 µM [activator, single point]"
